Results deposited as PubChem BioAssay AID1259308 (NCATS, 2017)
Purpose: 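Candidate targets for better recombinant protein yield in mammalian cells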 (primary screen). System: human HEK293 embryonic kidney cells stably expressing firefly luciferase (HEK-CMV-Luc2-Hygro). Knock-down reagent: single siRNA against human genes, 0.8 pmol siRNA per well. Duration: 72 h. Measured: 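Luciferase light (ONE-Glo) measured on one replicate plate set and viability (CellTiter-Glo) on the other, scaled to a negative control siRNA, with robust z-scores and luciferase per cell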. Scale: total luciferase, z-score and total luciferase, % of control: higher = more reporter protein produced; luciferase per cell, z-score: higher = more reporter output per viable cell; viable cells, % of control: higher = more viable cells. Hit rule: 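An siRNA counts as active if its total luciferase robust z-score exceeds 3; genes with two or more such siRNAs out of three were retested with fresh siRNAs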. Calls: active = raised luciferase; inactive = no rise.
In all, the deposit lists about 59,000 reagents; shown is an unselected part. Over the whole deposit, about 1,510 (2.6%) got an active call. 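Calls use total luciferase alone and ignore viability, so some active siRNAs may act by altering cell number.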 Unmarked entries are inactive.

| Gene | PubChem SID | total luciferase, z-score | total luciferase, % of control | luciferase per cell, z-score | viable cells, % of control |
| --- | --- | --- | --- | --- | --- |
| LOC283804 (GeneID 283804) | SID160763045 | 1.77 | 117 | 1.83 | 80.8 |
| LOC283804 (GeneID 283804) | SID160763046 | -1.6 | 50.1 | -1.34 | 79.6 |
| LOC283804 (GeneID 283804) | SID160763047 | 1.65 | 115 | 1.33 | 90.4 |
| PRPF4BP1 (GeneID 653155) | SID160770943 | 0.154 | 84.9 | 0.333 | 87 |
| PRPF4BP1 (GeneID 653155) | SID160770944 | 0.218 | 86.2 | -0.317 | 105 |
| PRPF4BP1 (GeneID 653155) | SID160770945 | -1.6 | 50.1 | -0.143 | 58.1 |
| SLC16A13 (GeneID 201232) | SID160760957 | -0.453 | 72.9 | -0.387 | 90.2 |
| SLC16A13 (GeneID 201232) | SID160760959 | -0.377 | 74.4 | -0.622 | 97.9 |
| SLC16A13 (GeneID 201232) | SID160760960 | -0.33 | 75.3 | -0.405 | 93.6 |
| CLSTN3 (GeneID 9746) | SID160722975 | -0.0781 | 80.3 | 0.259 | 83.9 |
| CLSTN3 (GeneID 9746) | SID160722976 | 1.94 | 121 | 0.796 | 109 |
| CLSTN3 (GeneID 9746) | SID160722977 | -0.24 | 77.1 | -0.612 | 101 |
| SUCLG2 (GeneID 8801) | SID160720838 | 0.779 | 97.4 | 0.165 | 104 |
| SUCLG2 (GeneID 8801) | SID160720839 | 0.409 | 90 | -0.128 | 104 |
| SUCLG2 (GeneID 8801) | SID160720840 | -1.59 | 50.2 | -1.63 | 86.1 |
| PVR (GeneID 5817) | SID160715457 | -2.3 | 36.2 | -2.13 | 70.8 |
| PVR (GeneID 5817) | SID160715458 | -0.096 | 80 | -0.337 | 97.7 |
| PVR (GeneID 5817) | SID160715459 | -0.0843 | 80.2 | -0.695 | 108 |
| INCA1 (GeneID 388324) | SID160765813 | -0.381 | 74.3 | 1.46 | 56.5 |
| INCA1 (GeneID 388324) | SID160765814 | 4.29 (active) | 167 | 3.1 | 82.5 |
| INCA1 (GeneID 388324) | SID160765815 | 0.909 | 100 | 0.41 | 100 |
| BOLL (GeneID 66037) | SID160748414 | -0.135 | 79.2 | -0.707 | 107 |
| BOLL (GeneID 66037) | SID160748415 | -1.16 | 58.8 | -0.164 | 68.6 |
| BOLL (GeneID 66037) | SID160748416 | 0.778 | 97.4 | 0.452 | 96.6 |
| LOC653513 (GeneID 653513) | SID160771021 | 0.43 | 90.4 | -0.24 | 108 |
| LOC653513 (GeneID 653513) | SID160771022 | -0.0255 | 81.4 | 0.105 | 88.4 |
| LOC653513 (GeneID 653513) | SID160771023 | 0.288 | 87.6 | -0.211 | 103 |
| ZNF746 (GeneID 155061) | SID160730662 | -0.59 | 70.2 | -0.323 | 85.3 |
| ZNF746 (GeneID 155061) | SID160759482 | 3.28 (active) | 147 | 2.85 | 77.6 |
| ZNF746 (GeneID 155061) | SID160759483 | -0.907 | 63.9 | -0.615 | 83.9 |
| GLRX (GeneID 2745) | SID160771607 | -0.84 | 65.2 | -0.88 | 91.8 |
| GLRX (GeneID 2745) | SID160771616 | 0.724 | 96.3 | 0.0632 | 106 |
| GLRX (GeneID 2745) | SID160771625 | 1.31 | 108 | 1.16 | 88.8 |
| LRRC37B (GeneID 114659) | SID160754939 | -1.08 | 60.4 | -0.899 | 85.6 |
| LRRC37B (GeneID 114659) | SID160754940 | 0.306 | 88 | 0.158 | 94.3 |
| LRRC37B (GeneID 114659) | SID160754941 | -0.264 | 76.6 | 0.248 | 80.2 |
| GAN (GeneID 8139) | SID160719662 | 0.652 | 94.9 | 0.0275 | 105 |
| GAN (GeneID 8139) | SID160719663 | 1.14 | 104 | 1.19 | 85.2 |
| GAN (GeneID 8139) | SID160719664 | 0.201 | 85.9 | -0.357 | 105 |
| CDAN1 (GeneID 146059) | SID160758320 | 0.579 | 93.4 | 1.27 | 74.7 |
| CDAN1 (GeneID 146059) | SID160758321 | 0.403 | 89.9 | 0.167 | 96.2 |
| CDAN1 (GeneID 146059) | SID160758322 | 1.25 | 107 | 0.654 | 100 |
| KLHL6 (GeneID 89857) | SID160753463 | 0.591 | 93.6 | 0.908 | 82.4 |
| KLHL6 (GeneID 89857) | SID160753465 | 1.04 | 102 | 0.604 | 97.7 |
| KLHL6 (GeneID 89857) | SID160753466 | 0.568 | 93.2 | 1.64 | 67.7 |
| LIMS3 (GeneID 96626) | SID160754674 | 0.51 | 92 | -0.535 | 118 |
| LIMS3 (GeneID 96626) | SID160754675 | -0.621 | 69.5 | -0.802 | 96 |
| LIMS3 (GeneID 96626) | SID160754676 | -0.55 | 70.9 | -0.437 | 88.9 |
| FAM135B (GeneID 51059) | SID160739939 | 0.131 | 84.5 | 0.232 | 88.8 |
| FAM135B (GeneID 51059) | SID160739941 | -0.586 | 70.2 | -0.172 | 82.1 |
| FAM135B (GeneID 51059) | SID160739942 | 0.946 | 101 | 0.89 | 89 |
| TRMT1 (GeneID 55621) | SID160743920 | 0.292 | 87.7 | 0.802 | 79.3 |
| TRMT1 (GeneID 55621) | SID160743921 | 0.135 | 84.6 | 0.239 | 88.7 |
| TRMT1 (GeneID 55621) | SID160743922 | 0.45 | 90.8 | 0.368 | 92.1 |
| IQANK1 (GeneID 642574) | SID160768638 | -1.25 | 57 | -0.262 | 68.2 |
| IQANK1 (GeneID 642574) | SID160768639 | -0.686 | 68.2 | -0.263 | 81.7 |
| IQANK1 (GeneID 642574) | SID160768640 | 0.218 | 86.2 | 0.59 | 82.5 |
| PCBP1 (GeneID 5093) | SID160713884 | -0.237 | 77.2 | -0.186 | 90.6 |
| PCBP1 (GeneID 5093) | SID160713885 | 0.153 | 84.9 | 0.19 | 90.3 |
| PCBP1 (GeneID 5093) | SID160731340 | -0.503 | 71.9 | 1.06 | 60.7 |
| SAYSD1 (GeneID 55776) | SID160744331 | -1.26 | 56.8 | 0.0945 | 61.9 |
| SAYSD1 (GeneID 55776) | SID160744332 | 0.699 | 95.8 | 0.278 | 99.5 |
| SAYSD1 (GeneID 55776) | SID160744333 | 1.45 | 111 | 1.5 | 83.3 |
| TCF25 (GeneID 22980) | SID160732733 | -1.09 | 60.3 | -0.316 | 73.2 |
| TCF25 (GeneID 22980) | SID160734337 | -0.812 | 65.7 | -0.959 | 94.6 |
| TCF25 (GeneID 22980) | SID160734356 | -1.51 | 51.9 | -1.84 | 94.3 |
| CBLN1 (GeneID 869) | SID160737331 | -0.506 | 71.8 | -0.388 | 88.9 |
| CBLN1 (GeneID 869) | SID160737341 | 0.0865 | 83.6 | -0.113 | 96.3 |
| CBLN1 (GeneID 869) | SID160737352 | 0.967 | 101 | 1.75 | 71.3 |
| PRKAG2 (GeneID 51422) | SID160740782 | -1.43 | 53.4 | -1.49 | 88.4 |
| PRKAG2 (GeneID 51422) | SID160740783 | -1.19 | 58.3 | -0.267 | 69.9 |
| PRKAG2 (GeneID 51422) | SID160740784 | -0.457 | 72.8 | -0.859 | 102 |
| C5orf63 (GeneID 401207) | SID160767191 | 3.31 (active) | 148 | 3.11 | 72.8 |
| C5orf63 (GeneID 401207) | SID160767193 | -2.6 | 30.2 | -2.5 | 65.3 |
| C5orf63 (GeneID 401207) | SID160767194 | 0.74 | 96.6 | 1.32 | 76.3 |
